Laboratory results from PubChem BioAssay AID624297 (National Center for Advancing Translational Sciences (NCATS), 2012).
About 6,200 (1.8%) of roughly 340,000 compounds were called active. This list was built around the results that the source calls inconclusive (neither active nor inactive); the mix of calls is not that of the screen. Calls follow the shape of the dose curve; as a rule, active = well fitted activation curve with a large enough effect; inconclusive = small, poorly fitted or top-dose-only effect; inactive = no such curve, though single readings can be large or run the other way. Potencies beside an inconclusive call are fits to weak or partial responses and may not hold up.

Assay: A quantitative high throughput screen for small molecules that induce DNA re-replication in SW480 colon adenocarcinoma cells. Also: nearly all actives have a fitted effect of over 55% in size. As to re-replication activation: % of control where 0% means no effect.
Conditions: Hoechst DNA content imaging, 48 h; re-replication activation: at 46.1 µM (top of the series) unless noted
How it was run: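 Image-based DNA-content assay: after two days of treatment, nuclei were labelled with the DNA dye Hoechst and imaged, and hits were compounds raising the count of nuclei showing high fluorescence intensity.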
Potency is read from the fitted curve at half-maximal effect.

| Compound | Potency | re-replication activation |
| --- | --- | --- |
| Cc1cc(OCCN2CCC(Cc3ccccc3)CC2)ccc1[N+](=O)[O-] | inconclusive: 29.1 µM [activator, single point] |  |
| CCN1CCN(C(=O)C2CCCN(S(=O)(=O)c3cc(Cl)ccc3Cl)C2)CC1 (stereo not given) | inactive |  |
| O=C(Nc1cccc(N2CCCC2)c1)c1cccs1 | inactive |  |
| O=C(/C=C/c1ccco1)Nc1cccc2cccnc12 | inactive |  |
| O=C(NCCCN1CCCC1=O)c1cc2nc(-c3ccco3)cc(C(F)(F)F)n2n1 | inactive |  |
| C#CCOCCOCCOCCNc1nc(N2CCN(C(=O)[C@H]([C@@H](C)CC)n3cc(CCCCN)nn3)CC2)nc(N2CCN(C(=O)[C@H](CCCCN)n3cc(CC(C)O)nn3)CC2)n1 (stereo not given in full) | inconclusive: 8.2 µM [activator, single point] |  |
| CCn1c(=O)c2cc(C(=O)N(C)c3cc(C)ccc3OC)sc2c2ccccc21 | inconclusive: 20.6 µM [activator, single point] |  |
| Cc1nc(NCc2ccco2)c2c3c(sc2n1)CCC3 | inconclusive: 25.9 µM [activator, single point] |  |
| O=C(Nc1ccc2ncccc2c1)Nc1ccc2ncccc2c1 | inactive |  |
| Cc1ccc2c(c1)c1nc3ccccc3nc1n2CCN1CCOCC1 | inconclusive: 22.4 µM [activator, single point] |  |
| COc1cc(-c2c(C#N)c(N)nc3[nH]c(=S)[nH]c(=O)c23)ccc1O | inactive |  |
| O=C(NCC(c1ccc(F)cc1)N1CCOCC1)c1ccc([N+](=O)[O-])o1 (stereo not given) | active: 10.3 µM |  |
| Cc1no[n+]([O-])c1COc1cccc(/C=N/Nc2nncn2N)c1 | inconclusive: 4.11 µM [activator, full curve] |  |
| CC1CCCC(C)N1C(=O)CSc1nnc(-c2cccs2)o1 (stereo not given) | inconclusive: 23.1 µM [activator, partial curve, poor fit] |  |
| CCN(CC)CCOC(=O)c1ccc(N/C=C(/C#N)c2nc(-c3ccc(OC)cc3)cs2)cc1 | inconclusive: 14.6 µM [activator, single point] |  |
| CCc1ccc(S(=O)(=O)Nc2cc(SCC(=O)O)c(O)c3ccccc23)cc1 | inconclusive: 0.0052 µM [activator, full curve, poor fit] |  |
| CCN(C(=O)COC(=O)c1c2c(nc3ccccc13)/C(=C/c1ccccc1)CC(C)C2)C1CCS(=O)(=O)C1 (stereo not given) | active: 7.31 µM |  |
| Cc1ccc(NC(=S)N(CCN2CCCCC2)Cc2ccco2)cc1C | inconclusive: 0.0046 µM [activator, full curve, poor fit] |  |
| CCC[n+]1c2ccccc2cc2ccccc21 | active: 11.6 µM |  |
| S=C(NCc1ccccc1)Nc1ccc2cn[nH]c2c1 | inactive |  |
| COC(=O)c1ccc(CN2CCN(C(C)C)C(CCO)C2)cc1 (stereo not given) | inconclusive: 0.461 µM [activator, full curve, poor fit] |  |
| CC(=O)Nc1nc(-c2ccc3c(c2)CCO3)cs1 | inconclusive: 25.9 µM [activator, single point] |  |
| Cc1ccc(S(=O)(=O)N(CC(=O)Nc2ccccc2C(=O)O)c2ccc(Cl)cc2)cc1 | inconclusive: 4.61 µM [activator, full curve, poor fit] |  |
| CCN1CCCC1CNC(=O)Cn1nc(C)n2c(cc3cc(C)ccc32)c1=O (stereo not given) | inconclusive: 14.1 µM [activator, single point] |  |

| Compound | Potency | re-replication activation |
| --- | --- | --- |
| COC(=O)c1cc(Sc2cccc(Cl)c2Cl)ccn1 | inactive |  |
| COc1ccc(C(=O)Nc2ccc(NC(=O)c3cc(OC)c(OC)c(OC)c3)cn2)cc1 | inactive |  |
| FC(F)(F)c1cccnc1Oc1ccc(C2=NCCS2)cc1 | inconclusive: 18.4 µM [activator, single point] |  |
| O=C(NCc1ccco1)c1sc2cc(Cl)ccc2c1Cl | inconclusive: 2.06 µM [activator, partial curve, poor fit] |  |
| Cc1ccc(OCCCNCCO)c(Br)c1 | inconclusive: 20.6 µM [activator, partial curve] |  |
| COc1ccc(S(=O)(=O)Nc2ccc(NC(C)=O)cc2)cc1Br | inactive |  |
| Cc1cc(NC(=O)CCCS(=O)(=O)c2nc(-c3cccs3)cc(C(F)(F)F)n2)no1 | inconclusive: 3.66 µM [activator, single point] |  |
| Nc1ccccc1N=Cc1ccc(-c2cccc(Cl)c2)o1 | inconclusive: 16.4 µM [activator, single point] |  |
| CC1=CC(C)(C)Nc2ccc(OC(=O)C(Cc3ccccc3)N3C(=O)C4CCCCC4C3=O)cc21 (stereo not given) | inconclusive: 29.1 µM [activator, single point] |  |
| COc1ccc(S(=O)(=O)N2CCOCC2)cc1NC(=O)CN1CCC(Cc2ccccc2)CC1 | inconclusive: 11.6 µM [activator, partial curve, poor fit] |  |
| CCN(C(=O)COC(=O)COc1ccccc1Cl)c1c(N)n(Cc2ccccc2)c(=O)[nH]c1=O | inconclusive: 29.1 µM [activator, single point] |  |
| CCCC1(c2ccccc2)NC(=O)N(CC(=O)Nc2cc(OC)cc(OC)c2)C1=O (stereo not given) | inactive |  |
| O=C(/C=C/NNC(=O)c1cccc(Br)c1)c1cccc(Br)c1 | inconclusive: 8.2 µM [activator, partial curve, poor fit] |  |
| COc1ccc(/C=C/C(=O)NC(=S)NNC(=O)Cc2cccs2)cc1 | inactive |  |
| COc1cc(CNCCN(C)C)ccc1OCc1c(F)cccc1Cl | inconclusive: 3.55 µM [activator, full curve] |  |
| Cc1ccc(OCc2cc(C(=O)NC3CCc4ccccc43)no2)cn1 (stereo not given) | inconclusive: 7.31 µM [activator, partial curve, poor fit] |  |
| O=C(Nc1ccccc1N1CCCC1)c1cccc(-c2cc3ccccc3oc2=O)c1 | inconclusive: 23.1 µM [activator, single point] |  |
| COc1ccccc1Nc1nc(Cl)nc(Nc2ccccc2OC)n1 | inactive |  |
| O=C(C1CC1)N1CCC(C(O)(c2ccccc2)c2ccccc2)CC1 | inactive |  |
| Cc1ccc(C(c2nnnn2Cc2cccs2)N2CCN(Cc3ccc4c(c3)OCO4)CC2)cc1 (stereo not given) | inconclusive: 20.6 µM [activator, partial curve, poor fit] |  |
| Cc1ccc(/C=N/NS(=O)(=O)c2ccccc2)o1 | inconclusive: 29.1 µM [activator, single point] |  |
| O=S(=O)(c1ccc(Cl)cc1)N1CCn2c1nc1ccccc12 | inconclusive: 6.51 µM [activator, partial curve, poor fit] |  |
| Cc1ccc(NC(=O)CSc2nc3ccccc3nc2N2CCOCC2)cc1 | inconclusive: 29.1 µM [activator, single point] |  |
| O=C1NC(c2cccc3ccccc23)Nc2ccc(Cl)cc21 (stereo not given) | active: 0.731 µM |  |

| Compound | Potency | re-replication activation |
| --- | --- | --- |
| Clc1ccccc1CSc1nc2ccncc2[nH]1 | inactive |  |
| CCC1CCCCN1CCCNC(=O)c1ccc2c(c1)N(Cc1ccc(F)cc1)C(=O)c1ccccc1S2=O (stereo not given) | inconclusive: 16.4 µM [activator, single point] |  |
| O=C(Nc1ccccc1)Oc1cccc2cccnc12 | inconclusive: 13 µM [activator, single point] |  |
| S=C(NNc1ccnc2cc(Cl)ccc12)Nc1ccccc1Cl | inconclusive: 29.1 µM [activator, single point] |  |
| CN(C)c1oc(-c2ccc(Cl)cc2)nc1S(=O)(=O)c1ccccc1 | inconclusive: 32.6 µM [activator, single point] |  |
| C#CCn1cc(/C=N/NC(=O)c2cc3ccccc3o2)c2ccccc21 | inconclusive: 29.1 µM [activator, single point] |  |
| CC[N+]1(CC)CC2=Cc3ccccc3CC2C1 (stereo not given) | inconclusive: 7.31 µM [activator, single point] |  |
| COc1ccc(NC(=O)c2cc(-c3ccc(C)o3)nc3ccccc23)cc1OC | inactive |  |
| COc1ccc(C(=O)n2c(N)nc3ccccc32)cc1OC | inactive |  |
| Cc1onc(C(=O)N2CCN(Cc3ccccc3)CC2)c1[N+](=O)[O-] | inconclusive: 29.1 µM [activator, single point] |  |
| Oc1ccc(Nc2nc(-c3ccccc3O)nc3ccccc23)cc1 | inconclusive: 3.66 µM [activator, partial curve, poor fit] |  |
| Cc1cc(C)c(C#N)c(SCC(=O)c2cc(C)n(CCc3ccccc3)c2C)n1 | inconclusive: 8.91 µM [activator, partial curve] |  |
| CN(C)CCNC(=O)c1cccc2[nH]c(-c3ccncc3)nc12 | inconclusive: 29.1 µM [activator, single point] |  |
| COCCSc1ccccc1C(=O)Nc1ccc(Br)cc1 | inactive |  |
| CCc1nc2ccccc2c(C(=O)OCC(=O)Nc2cccc(S(=O)(=O)NC3=NCCCCC3)c2)c1C | inconclusive: 6.51 µM [activator, single point] |  |
| Cc1ccc(Cl)cc1N(C(=O)c1csnn1)C(C(=O)NC1CCCC1)c1ccco1 (stereo not given) | inactive |  |
| Cc1cccc(-n2ncc3c(NC4CCCCC4)ncnc32)c1 | inactive |  |
| O=C(N/N=C/c1cc(Br)cs1)c1ccc2c(c1)OCCO2 | inconclusive: 29.1 µM [activator, single point] |  |
| Cc1nc(-c2ccccc2)sc1C(=O)NN | inconclusive: 18.4 µM [activator, partial curve, poor fit] |  |
| CC(C)C[C@H]1CN=C(Nc2ccccc2)N1CC(C)C |  | inactive: 0.375% [at 9.22 µM] |
| CC1(C)Cc2c(cnn2-c2cccc(F)c2)C(NC(=O)CCc2cnccn2)C1 (stereo not given) | inactive |  |
| C/C(=N\Nc1ccc(Cl)c(C(=O)O)c1)c1cccc([N+](=O)[O-])c1 |  | inconclusive: 44.4% [activator] |

Copied from the listing, five compounds:

| Compound | Potency | re-replication activation |
| --- | --- | --- |
| COCCSc1ccccc1C(=O)Nc1ccc(Br)cc1 | inactive |  |
| CCc1nc2ccccc2c(C(=O)OCC(=O)Nc2cccc(S(=O)(=O)NC3=NCCCCC3)c2)c1C | inconclusive: 6.51 µM [activator, single point] |  |
| Cc1ccc(Cl)cc1N(C(=O)c1csnn1)C(C(=O)NC1CCCC1)c1ccco1 (stereo not given) | inactive |  |
| Cc1cccc(-n2ncc3c(NC4CCCCC4)ncnc32)c1 | inactive |  |
| O=C(N/N=C/c1cc(Br)cs1)c1ccc2c(c1)OCCO2 | inconclusive: 29.1 µM [activator, single point] |  |
